# PubChem BioAssay AID652243 | Drosophila RNAi Screening Center – 2013
# Assay: 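Knock-downs that decrease or increase androgen receptor reporter signal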 (primary screen)
# System: Drosophila S2R+ cells
# Reagents: long dsRNA against Drosophila genes
# Timing: 72 h (48 h, then 24 h hormone)
# Challenge: synthetic androgen R1881 at 10 nM for 24 h
# Measured: 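Per-well raw luminescence of the androgen-driven firefly reporter and of the Renilla control, two replicates each, without normalisation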
# Scale: firefly reporter light: higher = more light from androgen-responsive reporter; Renilla control light: higher = more constitutive control signal (cell number, transfection)
# Hit rule: 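Across duplicate plates, a knock-down whose log firefly/Renilla ratio shifted a set fold down or up from the GFP/LacZ control mean was a hit; the downward cut appears as both 1.5 and 3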
# Meaning of the calls: active = hit: reporter lowered or raised; inactive = no hit
# In all, the deposit lists about 24,000 reagents; shown is an unselected part of those with a known target gene and a result. Of all reagents, 246 (1%) were called active. 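Plates not normalised; calls are printed but the firefly/Renilla ratio behind them is not deposited; fold cut for lowering reported inconsistently.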 Raw values are not corrected between plates. Entries without a mark were called inactive. A plus sign joins genes that one reagent is predicted to hit. No sequences are given here. Not stated in the record: the amount of reagent.
target gene,DRSC id,"firefly reporter light, replicate 1","firefly reporter light, replicate 2","Renilla control light, replicate 1","Renilla control light, replicate 2"
CG7458,DRSC11829,2.81e5,3.09e5,2.16e6,2.09e6
CG7458,DRSC21340,1.13e6,9.57e5,2.52e6,1.91e6
RhoGAP5A,DRSC18294,1.45e5,1.06e5,1.17e6,5.36e5
RhoGAP5A,DRSC24778,5.62e5,3.75e5,1.39e6,5.23e5
RhoGAP5A,DRSC38990,1.80e6,1.87e6,2.33e6,1.88e6
CG33252,DRSC19162,9.17e5,1.21e6,1.02e6,8.00e5
CG4229,DRSC10407,39550,49914,4.82e5,3.63e5
Brd8,DRSC14866,1.28e5,79693,9.86e5,7.07e5
Brd8,DRSC28811,4.73e5,3.92e5,1.72e6,1.85e6
GstT4,DRSC19757,86596,1.70e5,8.62e5,1.08e6
CG8312,DRSC16406,87773,1.34e5,1.53e6,1.45e6
CG34241,DRSC38845,1.12e6,1.05e6,1.99e6,1.84e6
grim,DRSC23169,9.60e5,6.86e5,1.71e6,1.32e6
Scamp,DRSC20286,2.83e5,4.28e5,3.27e6,3.83e6
Scamp,DRSC29752,4.16e5,3.90e5,6.88e5,1.05e6
trr,DRSC23290,3.22e5,4.35e5,1.02e6,1.29e6
trr,DRSC28776,3.26e5,2.80e5,1.53e6,1.36e6
CG5013,DRSC15695,1.11e5,98078,1.64e6,1.77e6
CG17059 + Fsn,DRSC26666,2.27e5,2.49e5,6.53e5,8.16e5
SH3PX1,DRSC11139,1.41e5,1.17e5,1.77e6,1.51e6
CG43777 + CG43776 + CG43775,DRSC04206,2.35e5,2.41e5,1.79e6,1.71e6
snoRNA:Me28S-C3420b + RpS11,DRSC07396,4.46e5,2.38e5,2.37e6,1.87e6
CG8321,DRSC07148,1.09e6,1.04e6,1.95e6,1.28e6
mof,DRSC18795,1.80e5,2.48e5,1.44e6,1.06e6
mof,DRSC24125,5.80e5,6.27e5,3.23e5,3.17e5

No new results follow: 3 of the entries above.
target gene,DRSC id,"firefly reporter light, replicate 1","firefly reporter light, replicate 2","Renilla control light, replicate 1","Renilla control light, replicate 2"
CG17059 + Fsn,DRSC26666,2.27e5,2.49e5,6.53e5,8.16e5
SH3PX1,DRSC11139,1.41e5,1.17e5,1.77e6,1.51e6
CG43777 + CG43776 + CG43775,DRSC04206,2.35e5,2.41e5,1.79e6,1.71e6
